Publication PMC9933440 (Crystal Growth & Design, 2022)

Key:
[1] = Solid-state fluorescence spectra and quantum yield; assay type: physicochemical; details: for ΦF (fluorescence quantum yield) / λem^max: solid state, excited at 365 nm; for luminescence compared with the pure API: this work
[2] = cited from earlier work
[3] = cited from earlier work; remark: listed apart in the source

In the case of CN1C(C(=O)Nc2ccccn2)=C(O)c2ccccc2S1(=O)=O [PRM, Piroxicam], the “ΦF (fluorescence quantum yield)” value [1] is given as 0.614, the “λem^max” value [1] is given as 460 nm and the “Biopharmaceutics Classification System class” value [2] is given as “Class II”.

For CN(C)c1ccncc1.CN1C(C(=O)Nc2ccccn2)=C(O)c2ccccc2S1(=O)=O [PRM-4DMP], the “ΦF (fluorescence quantum yield)” value [1] was 0.660, the “λem^max” value [1] was 471 nm and the “luminescence compared with the pure API” value [1] was “modified luminescence”.

With CN(C)c1ccncc1.Cc1cnc(NC(=O)C2=C(O)c3ccccc3S(=O)(=O)N2C)s1 [MEL-4DMP] the “ΦF (fluorescence quantum yield)” value [1] was 0.044.

For CN1C(C(=O)Nc2ccccn2)=C(O)c2ccccc2S1(=O)=O.Nc1ccncc1 [PRM-4AP], the “ΦF (fluorescence quantum yield)” value [1] was 0.685, the “λem^max” value [1] was 477 nm and the “luminescence compared with the pure API” value [1] was “modified luminescence”.

With C1CNCCN1.CN1C(C(=O)Nc2ccccn2)=C(O)c2ccccc2S1(=O)=O.CN1C(C(=O)Nc2ccccn2)=C(O)c2ccccc2S1(=O)=O [PRM-PPZ] the “ΦF (fluorescence quantum yield)” value [1] was 0.408, the “λem^max” value [1] was 463 nm and the “luminescence compared with the pure API” value [1] was “modified luminescence”.

For Cc1cnc(NC(=O)C2=C(O)c3ccccc3S(=O)(=O)N2C)s1.Nc1ccncc1 [MEL-4AP], the “ΦF (fluorescence quantum yield)” value [1] was 0.008.

For C1CNCCN1.Cc1cnc(NC(=O)C2=C(O)c3ccccc3S(=O)(=O)N2C)s1.Cc1cnc(NC(=O)C2=C(O)c3ccccc3S(=O)(=O)N2C)s1 [MEL-PPZ], the “ΦF (fluorescence quantum yield)” value [1] was 0.016.

In the case of CN1C(C(=O)Nc2ccccn2)=C(O)c2sc(Cl)cc2S1(=O)=O.CNC(=O)NC [LRM 1,3-dimethyl urea], the “tabletability vs parent API (fold)” value [3] is listed as 2.5 x.

For Cc1cnc(NC(=O)C2=C(O)c3ccccc3S(=O)(=O)N2C)s1 [MEL, meloxicam], the “ΦF (fluorescence quantum yield)” value [1] was 0.14.
